This passage reports binding results from patent publication US20070202508A1.

The target in this assay is primary sigma factor from T. thermophilus (σ^A) (Thermus thermophilus). The assay is described as follows: Ni-NTA agarose pull-down, SDS-PAGE with Coomassie stain.

Results are given in words; binding and its absence hold for the method and conditions named. In cells and extracts the contact can be indirect. Binding calls can cover weak binding; strength is not graded here. Where a sequence is shown, tags or fusion partners need not be part of it.

B1: histidine-tagged phage protein Ys18 (protein)
chain: MTRPWTEAEINELIELVNAGRKRREIAKILGRTPKSIESKLRDIRKKSGEGNEKVLANNKINENNNSQKNIEKTNSEKVDAIVLYRKFLRKFLQKDSLPEREFDSLANAVEEYYIKTKNLSGAILLLETIMESGKY
With B1, the binding result was “binds”.
